{"source": "PubChem BioAssay AID504834", "about": "(National Center for Advancing Translational Sciences (NCATS), 2011)", "note": "About 22,000 (6.9%) of roughly 320,000 compounds were called active. The shares of active, inactive and inconclusive entries below differ from those in the screen. The call rests on the fitted dose curve; in most records, active means well fitted inhibition curve with a large enough effect; inconclusive means small, poorly fitted or top-dose-only effect, or another doubt; inactive means no such curve, though single readings can be large or run the other way. Where the call is inconclusive, the potency comes from a doubtful curve fit. On the % scale 0 is the no-effect control and ±100 the full control effect; potency means the concentration at half of the fitted maximal effect.", "data": [{"test": "Primary qHTS for delayed death inhibitors of the malarial parasite plastid, 96 hour incubation", "settings": "P. falciparum luciferase reporter growth; series mostly up to 28.7 µM", "how_it_was_run": "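Delayed-death screen, second-generation endpoint: infected erythrocytes, 2% hematocrit, 0.05% parasitemia final; 96 hours at 37 C, 5% CO2; luciferase detection reagent; luminescence decrease equals reduced growth.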", "values": [{"compound": "O=C(Nc1ccc(F)cc1)c1ccccc1NS(=O)(=O)N1CCCC1", "Potency": "inconclusive: 0.0657 µM [inhibitor, full curve, poor fit]"}, {"compound": "O=[N+]([O-])CC(c1ccc(F)cc1)c1c[nH]c2ccccc12", "note": "(configuration not stated)", "Potency": "inconclusive: 11.7 µM [inhibitor, partial curve]"}, {"compound": "Cc1ccc(O)c(-c2cc(-c3ccccc3[N+](=O)[O-])[nH]n2)c1", "Potency": "inactive"}, {"compound": "O=C(Nc1ccccc1C(F)(F)F)C1CCN(C(=O)c2cccs2)CC1", "Potency": "inactive"}, {"compound": "Cc1ccc(-n2nc3c(=O)n(CC(=O)NCc4ccc(C)o4)nc(C)c3c2C)cc1", "Potency": "inconclusive: 4.15 µM [inhibitor, partial curve]"}, {"compound": "COc1cccc(NC(=O)CSc2nnc(-c3ccoc3C)n2C)c1", "Potency": "inconclusive: 2.62 µM [inhibitor, single point]"}, {"compound": "C=CCn1c(=O)[nH]c2cc(C(=O)N3CCN(c4ccc(C(C)=O)cc4)CC3)ccc2c1=O", "Potency": "active: 6.57 µM"}, {"compound": "COc1ccc(Br)cc1S(=O)(=O)NCc1ccccn1", "Potency": "inconclusive: 3.7 µM [inhibitor, full curve, poor fit]"}, {"compound": "O=C(NC(=S)Nc1ccccc1N1CCOCC1)c1cccc([N+](=O)[O-])c1", "Potency": "inconclusive: 11.7 µM [inhibitor, partial curve, poor fit]"}, {"compound": "Cc1ccc(OCCNC(=O)c2ccccc2O)cc1", "Potency": "inconclusive: 18.5 µM [inhibitor, single point]"}, {"compound": "COc1ccc(OC)c(CC(=O)N2CCc3cc(OC)c(OC)cc3C2)c1", "Potency": "inactive"}, {"compound": "Cn1c(=O)c2c(nc(CN3CCN(C(=O)c4ccco4)CC3)n2CCc2ccccc2)n(C)c1=O", "Potency": "inactive"}, {"compound": "CCCCN(C(=O)CCC(=O)Nc1cc(C)on1)C(C(=O)NC(C)(C)C)c1cccc(OC)c1OC", "note": "(configuration not stated)", "Potency": "inconclusive: 5.22 µM [inhibitor, partial curve, poor fit]"}, {"compound": "CCOc1ncccc1C(=O)Nc1nnc(C)s1", "Potency": "inactive"}, {"compound": "COc1ccc(C(=O)NCC2(c3ccc(OC)c(OC)c3)CCCC2)c(OC)c1", "Potency": "inconclusive: 18.5 µM [inhibitor, single point]"}, {"compound": "Cc1ccc2c(c1)N(C(=O)CCC(=O)N1CCN(c3ccccn3)CC1)CC(C)O2", "note": "(configuration not stated)", "Potency": "inconclusive: 11.7 µM [inhibitor, single point]"}, {"compound": "c1ccc(Cn2c[n+](Cc3ccccc3)c3ccccc32)cc1", "Potency": "active: 6.57 µM"}, {"compound": "CC(=O)Nc1ccc(S(=O)(=O)NCC(=O)OCC(=O)c2cc(C)n(-c3ccc4c(c3)OCO4)c2C)cc1", "Potency": "inconclusive: 0.0928 µM [inhibitor, full curve, poor fit]"}, {"compound": "Cc1ccc(-c2csc3ncnc(N4CCN(Cc5ccccc5)CC4)c23)cc1", "Potency": "inconclusive: 18.5 µM [inhibitor, single point]"}, {"compound": "CC(C)n1cc(CN2CCC(Oc3ccc(C(=O)N4CCCCC4)cc3)CC2)cn1", "Potency": "inconclusive: 10.4 µM [inhibitor, partial curve]"}, {"compound": "Nc1ccc2c(c1)COC2=O", "Potency": "inconclusive: 10.4 µM [inhibitor, single point]"}, {"compound": "O=C(c1cc(-c2ccccc2)on1)N1CCc2ccccc2C1", "Potency": "inconclusive: 0.465 µM [inhibitor, partial curve, poor fit]"}, {"compound": "CC1(c2nnc(-c3ccc(F)cc3)o2)CC(c2ccc(Cl)cc2)=NO1", "note": "(configuration not stated)", "Potency": "inactive"}, {"compound": "Cc1cccc(CSc2nc(N)c(C#N)c(-c3cccs3)c2C#N)c1", "Potency": "inconclusive: 16.5 µM [inhibitor, single point]"}, {"compound": "Cn1cccc1C(=O)NCCc1ccc(Cl)cc1", "Potency": "inactive"}, {"compound": "COc1ccc(OCC(=O)Nc2ccc(Cl)cc2)cc1", "Potency": "inactive"}, {"compound": "CC(C)NCC(O)c1ccccc1Cl", "note": "(configuration not stated)", "Potency": "active: 12 µM"}, {"compound": "NC(=O)c1ccccc1Nc1nc2nc3ccccc3c(=O)n2cc1Br", "Potency": "inactive"}, {"compound": "NNC(=O)CCN1CCN(C(c2ccccc2)c2ccccc2)CC1", "Potency": "inconclusive: 4.65 µM [inhibitor, single point]"}, {"compound": "CCc1ccc2[nH]c(=O)c(CN(CC3CCCO3)C(=S)NCc3ccco3)cc2c1", "note": "(configuration not stated)", "Potency": "inconclusive: 11.7 µM [inhibitor, partial curve, poor fit]"}, {"compound": "Cc1ccc(S(=O)(=O)N2CCCC(C(=O)NC3CCCC3)C2)cc1Cl", "note": "(configuration not stated)", "Potency": "inconclusive: 0.738 µM [inhibitor, full curve, poor fit]"}, {"compound": "CSc1nc(C)c2c(n1)N(c1ccc(C(F)(F)F)cc1)CC2", "Potency": "inactive"}, {"compound": "COc1cc(/C=C2\\C(=O)N(c3ccccc3)N=C2C)ccc1Oc1ccc([N+](=O)[O-])cc1[N+](=O)[O-]", "Potency": "active: 10.4 µM"}, {"compound": "c1ccc(COc2ccc(Nc3ncnc4nc[nH]c34)cc2)cc1", "Potency": "inconclusive: 18.5 µM [inhibitor, single point]"}, {"compound": "Cc1cc2ncn(CCC(=O)NC(C)(C)C)c2cc1C", "Potency": "inconclusive: 18.5 µM [inhibitor, single point]"}, {"compound": "COc1ccc(CCN(C)C(=O)CCCN2C(=O)c3cccc4cccc(c34)C2=O)cc1OC", "Potency": "inconclusive: 9.28 µM [inhibitor, partial curve, poor fit]"}, {"compound": "CCC(C)(C)n1nnnc1C(c1ccc(O)c(OC)c1)N1CCN(c2nc3ccccc3s2)CC1", "note": "(configuration not stated)", "Potency": "inactive"}, {"compound": "O=c1cc(-c2ccccc2)c2ccc(O)c(CN3CCCCC3)c2o1", "Potency": "inactive"}, {"compound": "CCOc1cc(CN2CCN(S(=O)(=O)Cc3ccccc3)CC2)ccc1OC", "Potency": "inactive"}, {"compound": "CCOc1ccccc1CN1CCN(S(=O)(=O)CC)CC1", "activity change, negative = inhibition": "inactive: 3.07% [at 5.75 µM]"}, {"compound": "Cc1cccc(C)c1-n1nnnc1C1(Nc2ccccc2)CCCCC1", "Potency": "inconclusive: 14.7 µM [inhibitor, partial curve, poor fit]"}, {"compound": "Brc1ccc2ncnc(Nc3cccc4ccccc34)c2c1", "Potency": "active: 13.1 µM"}, {"compound": "CSc1nnc(C)c(/C=C/NOCc2cccc(F)c2)n1", "Potency": "inconclusive: 5.22 µM [inhibitor, partial curve, poor fit]"}, {"compound": "CCN(Cc1nc2cc(Cl)ccc2c(=O)[nH]1)C(=O)C1CC(=O)N(c2cccc3ccccc23)C1", "note": "(configuration not stated)", "Potency": "inconclusive: 10.4 µM [inhibitor, single point]"}, {"compound": "CCC(CC)C(=O)Nc1nc(-c2ccc3c(c2)CCN3C(=O)C2CC2)c(C)s1", "Potency": "inconclusive: 16.5 µM [inhibitor, single point]"}, {"compound": "O=C(NC1CC1)C1=C[C@H](c2ccccc2)C[C@H](OCc2ccc(CO)cc2)O1", "Potency": "inconclusive: 9.28 µM [inhibitor, single point]"}, {"compound": "CN(C)CCNc1ncnc2oc(-c3ccccc3)c(-c3ccccc3)c12", "Potency": "inconclusive: 11.7 µM [inhibitor, partial curve, poor fit]"}, {"compound": "C=CCOc1ccc(C2NC(=S)NC(C)=C2C(=O)c2ccccc2)cc1OC", "note": "(configuration not stated)", "Potency": "inconclusive: 18.5 µM [inhibitor, single point]"}, {"compound": "CC1CCCCC1NC(=O)COc1ncnc2sccc12", "note": "(configuration not stated)", "Potency": "inconclusive: 16.5 µM [inhibitor, single point]"}, {"compound": "CCc1ccc(NC(=O)C2CCN(c3ncnc4c3nc3n4CCCCC3)CC2)cc1", "Potency": "inconclusive: 10.4 µM [inhibitor, single point]"}, {"compound": "CC(C)[C@H](NC(=O)c1ccc(F)cc1)C(=O)N(C)Cc1cccs1", "Potency": "inactive"}, {"compound": "O=c1c2ccccc2[nH]c(=S)n1-c1cccc(S(=O)(=O)N2CCCC2)c1", "Potency": "inconclusive: 13.1 µM [inhibitor, single point]"}, {"compound": "Cc1nc2scc(-c3ccc(C(C)C)cc3)c2c(=O)n1N", "Potency": "inactive"}, {"compound": "Cc1ccc2c(c1)c1c(n2CC(O)Cn2ccnc2C)C(=O)CCC1", "note": "(configuration not stated)", "Potency": "inactive"}, {"compound": "CC(C)CCn1c(O)c(N=NC(=O)Cn2ccc(C(F)(F)F)n2)c2ccccc21", "Potency": "inactive"}, {"compound": "Cc1ccc(CNS(=O)(=O)c2ccc(-c3cnc(C4CC4)o3)cc2)cc1", "Potency": "inconclusive: 18.5 µM [inhibitor, single point]"}, {"compound": "O=C(CC1=NCCNC(c2ccccc2)C1)c1ccccc1O", "note": "(configuration not stated)", "Potency": "inconclusive: 10.4 µM [inhibitor, single point]"}, {"compound": "CC(=O)N1CC(C)Oc2ccc(S(=O)(=O)NC(CC(=O)O)c3ccc(C)cc3C)cc21", "note": "(configuration not stated)", "Potency": "inconclusive: 9.28 µM [inhibitor, single point]"}, {"compound": "Cc1oc(-c2ccccc2F)nc1CS(=O)(=O)CC(=O)NCc1ccccc1Cl", "Potency": "inactive"}, {"compound": "Cc1cc([N+](=O)[O-])ccc1NC(=O)c1sc2ncn(CC(=O)N3CCOCC3)c(=O)c2c1C", "Potency": "active: 14.7 µM"}, {"compound": "O=[N+]([O-])c1cccnc1Oc1ccc(F)cc1", "Potency": "inconclusive: 9.28 µM [inhibitor, single point]"}, {"compound": "Cc1ccc(C)c(NC(=S)NNC(=O)c2csc(C(C)C)c2)c1", "Potency": "inactive"}, {"compound": "CCN(CC(=O)Nc1cc(Cl)ccc1C)C(=O)c1ccc(=O)n(Cc2ccccc2)n1", "Potency": "active: 9.28 µM"}, {"compound": "COc1ccc(CCNC(=O)CSc2ccc3ccccc3c2)cc1OC", "Potency": "inconclusive: 13.1 µM [inhibitor, single point]"}, {"compound": "Cc1ccc(S(=O)(=O)c2c(N)n(C)c3nc4ccccc4nc23)cc1", "Potency": "active: 0.928 µM"}, {"compound": "Cc1nnc(NC(=O)C(C)Sc2nnc(CNC(=O)c3ccccc3F)n2C)s1", "note": "(configuration not stated)", "Potency": "inconclusive: 4.15 µM [inhibitor, single point]"}, {"compound": "Nn1c(-c2cccc(Br)c2)n[nH]c1=S", "Potency": "inactive"}, {"compound": "COc1ccc(C(=O)NCc2cccnc2)cc1", "Potency": "inconclusive: 18.5 µM [inhibitor, single point]"}, {"compound": "CC1CCCC(C)N1C(=O)CSc1nc2ncnc(N)c2[nH]1", "note": "(configuration not stated)", "Potency": "active: 0.738 µM"}, {"compound": "Nc1nnc(CCS(=O)(=O)c2ccc(Br)cc2)s1", "Potency": "inactive"}, {"compound": "CC(C)n1nnnc1SCC(=O)Nc1ccccc1N1CCOCC1", "Potency": "inconclusive: 18.5 µM [inhibitor, partial curve, poor fit]"}, {"compound": "COc1ccc(C(=O)CCC(=O)NCCc2c[nH]c3ccccc23)cc1OC", "Potency": "inconclusive: 13.1 µM [inhibitor, partial curve, poor fit]"}]}]}
